Source: paper doi:10.1101/2024.03.15.585280
Results are given in words; binding and its absence hold for the method and conditions named. Some binding calls cover weakened binding; strength is not graded here. Where a sequence is shown, tags or fusion partners need not be part of it.

Sequences of proteins named here, by UniProt entry; tags and fusion partners are left off.
UniProt P49597: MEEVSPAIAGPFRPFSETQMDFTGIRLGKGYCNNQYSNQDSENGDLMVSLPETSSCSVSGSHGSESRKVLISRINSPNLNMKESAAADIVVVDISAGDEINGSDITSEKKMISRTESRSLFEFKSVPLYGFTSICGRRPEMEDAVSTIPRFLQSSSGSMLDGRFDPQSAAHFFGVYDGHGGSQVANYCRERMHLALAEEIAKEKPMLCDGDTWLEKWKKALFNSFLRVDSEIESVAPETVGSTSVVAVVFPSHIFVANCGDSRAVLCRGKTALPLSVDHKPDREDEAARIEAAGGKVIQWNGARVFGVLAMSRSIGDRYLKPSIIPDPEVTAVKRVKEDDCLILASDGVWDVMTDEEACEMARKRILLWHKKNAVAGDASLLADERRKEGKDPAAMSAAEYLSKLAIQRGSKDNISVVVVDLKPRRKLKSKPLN

Target: T1, AtOST1-BD (Arabidopsis) (UniProt Q940H6)
T1 sequence: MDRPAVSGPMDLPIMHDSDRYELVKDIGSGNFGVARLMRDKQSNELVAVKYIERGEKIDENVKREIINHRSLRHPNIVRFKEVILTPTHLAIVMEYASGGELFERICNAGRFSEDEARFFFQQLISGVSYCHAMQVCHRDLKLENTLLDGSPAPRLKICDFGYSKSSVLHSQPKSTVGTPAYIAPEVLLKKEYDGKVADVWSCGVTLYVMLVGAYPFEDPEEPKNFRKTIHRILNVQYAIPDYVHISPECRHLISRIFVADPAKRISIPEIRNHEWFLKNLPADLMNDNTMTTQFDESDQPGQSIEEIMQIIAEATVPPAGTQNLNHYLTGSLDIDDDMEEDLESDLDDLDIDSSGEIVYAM
Assay: two-hybrid

binding: binds
Substance: AtABI1-AD (from UniProt P49597 1-434) (enzyme)
